Laboratory results as given in patent US20030074686A1, “Novel method for the generation and selection of transgenic linseed/flax plants” (priority 1999, published 2003).
For at least one compound, name, drawing or mass did not settle the structure.

Test system: hypocotyl segments used for the Agrobacterium tumefaciens inoculation
Assay: Sensitivity of hypocotyl segments to selection antibiotics
Type: in vivo, flax
Conditions: even at low concentrations hypocotyls turned brown and failed to produce callus or shoots
From the text: Preferably, testing the two antibiotic system in the transformation experiments is done using kanamycin for the initial selection and G-418 for the second and third rounds of selection (FIG. 1).

SMILES: NC[C@H]1O[C@H](O[C@H]2[C@H](O)[C@@H](O[C@H]3O[C@H](CO)[C@@H](O)[C@H](N)[C@H]3O)[C@H](N)C[C@@H]2N)[C@H](O)[C@@H](O)[C@@H]1O [kanamycin]
- Sensitivity of hypocotyl segments to the antibiotic: sensitive to all the antibiotics tested except kanamycin
